According to publication PMC5593965:
Results are given in words; binding and its absence hold for the method and conditions named. Binding seen in cells or lysates may run through a third protein. Here binding means that the protein was enriched with, or labelled near, the bait; the list need not be complete. No binding means not detected with the bait.

B1: 30S ribosomal protein S11 (protein, UniProt Q4AAG5 1-134)
chain: MATNVKKVKKLRPKNVTVGIAHIHSSHQNTIISFTDKQGNVISWASSGSVGFKGTKKKTAYAATLATAAAAQKAREHGIREVIVELKGTGQGKEAARKQIITSGLNILLTKDVTPVPHNGTRPPRKWFKRQEKR
B2: Transcription elongation factor GreA (protein, UniProt Q4A921 1-160)
chain: MKNIVDDKILLTQQKLEEIEKELEHLINVERVNVIQEIKDARSQGDLSENAEYDVAREKQGIIESRIRELETIISKAKIIKADLGSSRVSIGSKVSLENVESGEIQTFQIVSSIDADPFKSKISNFSPIAQALLGQHQGDEVEVDVNEKYSVRILEVINE

Key:
plasminogen = assay: affinity purification with mass spectrometry; plasminogen as bait on an avidin agarose column; M. hyopneumoniae protein lysate loaded in PBS (pH 7.8), washed with 4 column volumes of PBS, eluted with 30% acetonitrile, 0.4% trifluoroacetic acid; elutions separated by 1D-SDS-PAGE and analysed by LC-MS/MS; only the target purified
fibronectin = assay: affinity purification with mass spectrometry; fibronectin as bait on an avidin agarose column; M. hyopneumoniae protein lysate loaded in PBS (pH 7.8), washed with 4 column volumes of PBS, eluted with 7 M urea, 2 M thiourea, 40 mM Tris and 1% (w/v) C7BzO; elutions separated by 1D-SDS-PAGE and analysed by LC-MS/MS; only the target purified

| Binder | binding (plasminogen) | binding (fibronectin) |
| --- | --- | --- |
| B1 | binds | binds |
| B2 | no binding | no binding |
